Here are results for 24 targets from the supplement of paper PMC10849652.

By UniProt entry, the sequences of proteins in these tests, tags left out. Where a name states a change or a piece, a line headed by the entry shows the natural chain unless it says otherwise.
UniProt Q8IZD2: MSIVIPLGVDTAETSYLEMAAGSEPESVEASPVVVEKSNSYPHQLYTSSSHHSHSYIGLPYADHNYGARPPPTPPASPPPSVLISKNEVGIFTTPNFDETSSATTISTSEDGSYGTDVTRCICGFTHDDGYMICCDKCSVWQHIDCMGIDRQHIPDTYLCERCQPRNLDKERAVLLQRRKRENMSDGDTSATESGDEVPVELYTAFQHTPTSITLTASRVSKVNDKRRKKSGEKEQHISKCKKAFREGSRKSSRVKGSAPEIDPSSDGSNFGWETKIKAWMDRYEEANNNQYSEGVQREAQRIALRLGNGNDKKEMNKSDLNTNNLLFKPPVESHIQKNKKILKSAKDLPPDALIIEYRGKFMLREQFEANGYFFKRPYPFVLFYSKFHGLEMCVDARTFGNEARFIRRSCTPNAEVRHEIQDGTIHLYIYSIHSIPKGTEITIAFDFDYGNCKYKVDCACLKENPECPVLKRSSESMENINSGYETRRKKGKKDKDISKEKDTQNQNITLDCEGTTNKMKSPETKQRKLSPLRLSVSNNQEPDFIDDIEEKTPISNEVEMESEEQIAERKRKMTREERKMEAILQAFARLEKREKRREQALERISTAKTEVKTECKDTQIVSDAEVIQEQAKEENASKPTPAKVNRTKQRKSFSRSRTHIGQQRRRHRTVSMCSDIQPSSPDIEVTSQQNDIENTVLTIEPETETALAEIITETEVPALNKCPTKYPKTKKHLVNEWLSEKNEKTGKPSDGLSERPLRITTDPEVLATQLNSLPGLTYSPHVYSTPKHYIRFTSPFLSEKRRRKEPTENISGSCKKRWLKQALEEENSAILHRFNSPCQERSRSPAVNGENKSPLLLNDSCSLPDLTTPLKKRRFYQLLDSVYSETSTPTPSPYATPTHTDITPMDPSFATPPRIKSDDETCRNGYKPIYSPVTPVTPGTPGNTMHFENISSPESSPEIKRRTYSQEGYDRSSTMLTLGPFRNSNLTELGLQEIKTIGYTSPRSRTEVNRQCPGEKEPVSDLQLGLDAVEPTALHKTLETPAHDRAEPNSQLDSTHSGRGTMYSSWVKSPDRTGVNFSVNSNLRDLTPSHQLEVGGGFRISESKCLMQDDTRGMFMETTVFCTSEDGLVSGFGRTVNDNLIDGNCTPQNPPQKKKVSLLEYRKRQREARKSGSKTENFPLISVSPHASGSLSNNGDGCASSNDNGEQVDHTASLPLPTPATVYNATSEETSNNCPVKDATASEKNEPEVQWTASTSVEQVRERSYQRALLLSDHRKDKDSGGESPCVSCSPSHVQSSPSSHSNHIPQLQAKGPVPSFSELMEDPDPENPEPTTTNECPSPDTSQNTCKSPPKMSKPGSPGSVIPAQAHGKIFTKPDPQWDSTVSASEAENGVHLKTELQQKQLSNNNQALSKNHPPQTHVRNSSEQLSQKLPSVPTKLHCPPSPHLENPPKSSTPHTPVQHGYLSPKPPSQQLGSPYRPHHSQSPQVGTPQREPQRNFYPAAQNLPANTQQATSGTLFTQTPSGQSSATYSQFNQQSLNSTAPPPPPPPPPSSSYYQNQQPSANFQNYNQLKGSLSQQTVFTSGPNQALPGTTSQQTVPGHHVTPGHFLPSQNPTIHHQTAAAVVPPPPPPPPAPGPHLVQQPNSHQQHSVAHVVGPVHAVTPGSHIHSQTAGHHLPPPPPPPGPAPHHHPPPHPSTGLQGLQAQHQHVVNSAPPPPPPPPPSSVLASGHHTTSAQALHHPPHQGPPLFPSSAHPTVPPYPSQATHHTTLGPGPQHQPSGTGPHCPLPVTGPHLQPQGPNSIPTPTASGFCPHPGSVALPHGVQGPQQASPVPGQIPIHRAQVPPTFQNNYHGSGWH
UniProt Q15053: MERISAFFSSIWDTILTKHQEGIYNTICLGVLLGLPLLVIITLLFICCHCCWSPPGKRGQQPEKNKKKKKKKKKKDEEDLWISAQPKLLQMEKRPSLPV
UniProt Q9BW19: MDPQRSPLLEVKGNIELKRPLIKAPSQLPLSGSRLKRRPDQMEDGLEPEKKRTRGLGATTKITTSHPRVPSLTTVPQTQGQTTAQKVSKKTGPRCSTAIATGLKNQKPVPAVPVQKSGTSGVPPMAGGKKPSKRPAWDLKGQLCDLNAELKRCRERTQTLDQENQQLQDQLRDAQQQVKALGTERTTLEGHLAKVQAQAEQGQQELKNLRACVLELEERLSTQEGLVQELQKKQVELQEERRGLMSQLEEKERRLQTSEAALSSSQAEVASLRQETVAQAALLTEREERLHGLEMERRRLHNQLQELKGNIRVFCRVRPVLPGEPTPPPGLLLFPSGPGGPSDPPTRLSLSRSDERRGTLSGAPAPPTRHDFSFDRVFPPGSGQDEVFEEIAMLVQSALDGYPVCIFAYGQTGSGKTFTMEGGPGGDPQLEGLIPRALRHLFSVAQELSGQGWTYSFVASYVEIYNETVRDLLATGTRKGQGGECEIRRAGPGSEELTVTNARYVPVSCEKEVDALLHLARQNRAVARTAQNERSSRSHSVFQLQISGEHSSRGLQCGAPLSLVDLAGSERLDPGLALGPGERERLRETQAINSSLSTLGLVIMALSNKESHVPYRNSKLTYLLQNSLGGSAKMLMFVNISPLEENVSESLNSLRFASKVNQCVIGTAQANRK
UniProt O95239: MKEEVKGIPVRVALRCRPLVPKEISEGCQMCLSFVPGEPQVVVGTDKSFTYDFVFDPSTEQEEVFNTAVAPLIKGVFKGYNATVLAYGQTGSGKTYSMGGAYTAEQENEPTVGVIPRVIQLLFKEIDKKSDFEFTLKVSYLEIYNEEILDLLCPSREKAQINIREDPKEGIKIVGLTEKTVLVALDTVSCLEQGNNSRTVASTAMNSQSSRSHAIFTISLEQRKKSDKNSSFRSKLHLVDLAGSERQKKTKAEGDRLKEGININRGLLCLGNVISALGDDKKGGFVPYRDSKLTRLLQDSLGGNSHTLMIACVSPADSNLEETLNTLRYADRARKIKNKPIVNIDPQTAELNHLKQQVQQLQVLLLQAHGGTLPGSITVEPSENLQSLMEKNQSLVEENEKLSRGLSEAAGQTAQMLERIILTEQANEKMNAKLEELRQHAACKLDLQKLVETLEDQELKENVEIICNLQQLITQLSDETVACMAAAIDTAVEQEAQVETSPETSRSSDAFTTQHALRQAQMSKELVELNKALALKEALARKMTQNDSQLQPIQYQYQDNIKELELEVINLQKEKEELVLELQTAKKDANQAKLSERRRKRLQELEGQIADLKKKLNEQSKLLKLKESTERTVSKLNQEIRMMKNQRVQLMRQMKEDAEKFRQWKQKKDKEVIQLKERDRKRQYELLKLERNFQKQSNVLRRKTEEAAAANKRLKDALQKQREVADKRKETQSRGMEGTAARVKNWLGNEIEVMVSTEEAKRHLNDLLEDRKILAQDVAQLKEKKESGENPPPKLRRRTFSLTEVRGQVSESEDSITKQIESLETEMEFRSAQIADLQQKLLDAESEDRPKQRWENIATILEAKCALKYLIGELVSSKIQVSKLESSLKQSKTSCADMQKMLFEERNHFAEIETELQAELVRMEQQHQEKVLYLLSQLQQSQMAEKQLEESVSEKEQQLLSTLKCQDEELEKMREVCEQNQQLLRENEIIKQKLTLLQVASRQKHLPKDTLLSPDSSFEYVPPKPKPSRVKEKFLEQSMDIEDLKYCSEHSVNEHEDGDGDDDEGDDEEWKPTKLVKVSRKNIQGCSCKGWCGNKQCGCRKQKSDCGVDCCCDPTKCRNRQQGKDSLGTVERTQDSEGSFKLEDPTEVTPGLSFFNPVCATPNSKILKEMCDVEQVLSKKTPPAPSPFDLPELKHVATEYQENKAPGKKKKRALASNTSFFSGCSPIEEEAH
UniProt Q9Y2M5: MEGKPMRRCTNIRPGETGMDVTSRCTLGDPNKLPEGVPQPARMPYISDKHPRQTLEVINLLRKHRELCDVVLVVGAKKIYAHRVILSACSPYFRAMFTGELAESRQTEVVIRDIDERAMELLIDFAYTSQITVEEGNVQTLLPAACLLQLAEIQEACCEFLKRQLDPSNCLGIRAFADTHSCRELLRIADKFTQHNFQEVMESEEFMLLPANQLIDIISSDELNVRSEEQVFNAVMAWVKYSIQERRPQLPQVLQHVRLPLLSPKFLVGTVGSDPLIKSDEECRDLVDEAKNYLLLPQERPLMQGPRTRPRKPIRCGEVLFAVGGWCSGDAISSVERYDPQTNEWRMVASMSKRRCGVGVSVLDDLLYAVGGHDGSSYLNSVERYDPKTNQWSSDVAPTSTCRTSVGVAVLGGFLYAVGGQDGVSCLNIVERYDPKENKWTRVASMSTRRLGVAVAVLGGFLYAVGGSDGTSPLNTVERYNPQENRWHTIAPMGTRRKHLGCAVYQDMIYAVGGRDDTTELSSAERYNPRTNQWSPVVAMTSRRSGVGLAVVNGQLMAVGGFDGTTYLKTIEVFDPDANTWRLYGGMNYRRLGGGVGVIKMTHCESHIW
UniProt Q96MP8: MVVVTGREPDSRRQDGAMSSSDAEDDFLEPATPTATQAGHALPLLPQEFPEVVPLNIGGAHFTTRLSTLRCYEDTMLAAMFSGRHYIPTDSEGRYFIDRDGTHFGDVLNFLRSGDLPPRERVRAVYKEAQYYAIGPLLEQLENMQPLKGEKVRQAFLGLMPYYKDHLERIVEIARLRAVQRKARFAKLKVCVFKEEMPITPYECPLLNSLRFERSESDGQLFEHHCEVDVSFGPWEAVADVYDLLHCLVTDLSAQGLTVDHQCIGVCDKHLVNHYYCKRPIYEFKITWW
UniProt O75037: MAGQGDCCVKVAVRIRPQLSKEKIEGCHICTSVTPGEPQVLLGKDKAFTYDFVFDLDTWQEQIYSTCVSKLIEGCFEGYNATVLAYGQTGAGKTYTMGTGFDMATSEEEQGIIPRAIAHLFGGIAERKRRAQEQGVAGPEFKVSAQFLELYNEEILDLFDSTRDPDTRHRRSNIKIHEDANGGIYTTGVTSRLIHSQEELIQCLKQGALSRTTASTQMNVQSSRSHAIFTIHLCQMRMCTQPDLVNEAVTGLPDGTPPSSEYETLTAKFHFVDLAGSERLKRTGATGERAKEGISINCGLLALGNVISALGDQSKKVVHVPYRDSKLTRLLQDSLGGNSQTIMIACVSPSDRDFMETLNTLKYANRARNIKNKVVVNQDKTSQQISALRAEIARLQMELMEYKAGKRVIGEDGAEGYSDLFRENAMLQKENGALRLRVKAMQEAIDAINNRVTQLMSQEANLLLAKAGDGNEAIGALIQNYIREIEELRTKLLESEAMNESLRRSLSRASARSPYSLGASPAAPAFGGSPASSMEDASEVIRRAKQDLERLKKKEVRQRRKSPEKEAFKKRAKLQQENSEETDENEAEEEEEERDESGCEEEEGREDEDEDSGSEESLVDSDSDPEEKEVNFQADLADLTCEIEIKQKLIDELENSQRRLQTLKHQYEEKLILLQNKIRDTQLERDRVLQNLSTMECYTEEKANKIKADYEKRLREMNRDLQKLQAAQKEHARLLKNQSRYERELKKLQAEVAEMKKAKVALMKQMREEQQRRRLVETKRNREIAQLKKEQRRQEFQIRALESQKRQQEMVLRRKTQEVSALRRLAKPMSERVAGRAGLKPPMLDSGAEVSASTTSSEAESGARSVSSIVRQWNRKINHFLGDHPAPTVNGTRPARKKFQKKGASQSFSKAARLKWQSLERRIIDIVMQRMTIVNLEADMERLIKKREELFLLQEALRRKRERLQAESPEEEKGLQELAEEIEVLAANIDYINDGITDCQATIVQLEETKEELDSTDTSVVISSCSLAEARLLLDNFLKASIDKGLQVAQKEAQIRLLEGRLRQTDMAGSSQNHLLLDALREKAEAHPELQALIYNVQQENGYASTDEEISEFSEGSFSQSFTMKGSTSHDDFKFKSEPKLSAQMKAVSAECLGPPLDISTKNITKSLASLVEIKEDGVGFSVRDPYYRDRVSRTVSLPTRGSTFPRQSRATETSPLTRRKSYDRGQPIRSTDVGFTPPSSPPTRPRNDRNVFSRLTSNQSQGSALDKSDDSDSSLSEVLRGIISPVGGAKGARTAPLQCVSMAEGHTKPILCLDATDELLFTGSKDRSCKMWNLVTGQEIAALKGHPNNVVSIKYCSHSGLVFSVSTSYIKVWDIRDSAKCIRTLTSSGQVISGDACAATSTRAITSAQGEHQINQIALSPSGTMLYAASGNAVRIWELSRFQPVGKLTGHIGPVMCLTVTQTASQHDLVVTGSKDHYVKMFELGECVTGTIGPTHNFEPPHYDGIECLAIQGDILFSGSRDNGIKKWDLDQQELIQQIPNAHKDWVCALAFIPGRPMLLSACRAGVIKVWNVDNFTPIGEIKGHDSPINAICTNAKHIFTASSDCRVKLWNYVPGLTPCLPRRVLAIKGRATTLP

The list shows a part of the results.

Compound in one assay: C[C@H](C1=CC=C(C=C1)C(=O)NC2=C3C=CNC3=NC=C2)N
Description: log2 fold change, soluble protein after heating vs DMSO (PISA); higher = thermal stabilisation; K562 cells, 10 uM, 30 min; active = over 0.2 and 3.5 SD of the protein, either way, in both replicates (recomputed). In a few lines: (§1)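 Aliquots of K562 cells (2×10^6 cells/mL) treated with 10 μM compound for 30 min were heated for 3 min over 48°C-58°C. After pooling and extraction in PBS with 0.5% NP-40 at 4°C, soluble protein from a 21,000xg, 90 min spin was quantified by TMTpro 16plex LC-MS/MS with channel sums equalised. Thermal stability is expressed against control samples, from duplicates, as a log2 fold change.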
For KIAA0754 (UniProt O94854), the log2 fold change is inactive: 0.121.
On the same count and under the same terms, the figure for KALRN (UniProt O60229) is inactive: -0.03.
The same measure, in the same setting: the figure for KDM3A (UniProt Q9Y4C1) is inactive: -0.073; for KMT2E (UniProt Q8IZD2) it is inactive: 0.171; for KIAA0040 (UniProt Q15053) it is inactive: 0.166.
Same read-out and setting: next, KLHL42 (UniProt Q9P2K6): inactive: 0.091; KIFC1 (UniProt Q9BW19): inactive: 0.298; KDM6A (UniProt O15550): inactive: -0.031.
Take JOSD1 (UniProt Q15040): the log2 fold change is inactive: -0.117.
The same measure, in the same setting: next, KIF16B isoform 2 (UniProt Q96L93): inactive: 0.187; KIF4A (UniProt O95239): inactive: 0.188.

Compound in the next assay: C[C@H](Nc1ncnc2nc[nH]c12)c1cc2cccc(Cl)c2c(=O)n1-c1ccccc1 [duvelisib]
The description is as above. The essentials: as §1
Turning to KIAA0754 (UniProt O94854), the log2 fold change was inactive: 0.185.
On the same count and under the same terms, the figure for KMT2E (UniProt Q8IZD2) is inactive: 0.045.
Still for that read-out and setting: the figure for KLHL20 (UniProt Q9Y2M5) is inactive: -0.47; for KLHL42 (UniProt Q9P2K6) it is inactive: 0.029.
Same read-out and setting: next, KDM6A (UniProt O15550): inactive: 0.047; JOSD1 (UniProt Q15040): inactive: 0.168.
For the target KCTD7 (UniProt Q96MP8), the log2 fold change is inactive: 0.
Consider KIF21B (UniProt O75037), for which the log2 fold change is inactive: -0.074.
For KIF16B isoform 2 (UniProt Q96L93), the log2 fold change was inactive: 0.084.
Regarding KIF4A (UniProt O95239), the log2 fold change was inactive: 0.265.
As to JMJD7 (UniProt P0C870), the log2 fold change was inactive: 0.889.

Compound in the next assay: Cc1cc(Nc2cc(CN3CCOCC3)c3nc(C)c(Cc4ccc(Cl)cc4F)n3n2)n[nH]1 [gandotinib]
The description is as above. In a few lines:
as §1
ITSN2 (UniProt Q9NZM3): the log2 fold change was inactive: 0.225.
For KIN (UniProt O60870), the log2 fold change was inactive: 0.055.
On to KDM3A (UniProt Q9Y4C1), for which the log2 fold change was inactive: -0.103.
On the same count and under the same terms, next, KLHDC10 (UniProt Q6PID8): inactive: -0.036; KLHL20 (UniProt Q9Y2M5): inactive: -0.113; KIFC1 (UniProt Q9BW19): inactive: 0.027.
Consider KSR2 (UniProt Q6VAB6), for which the log2 fold change is inactive: 0.014.
On to KIF20B isoform 2 (UniProt Q96Q89), for which the log2 fold change is inactive: 0.12.
KAT6B (UniProt Q8WYB5): the log2 fold change is inactive: 0.05.
For KMT5A (UniProt Q9NQR1), the log2 fold change was inactive: 0.038.
Turning to KCTD7 (UniProt Q96MP8), the log2 fold change is inactive: -0.225.
The same measure, in the same setting: the figure for KIF4A (UniProt O95239) is inactive: 0.031; for KRT10, A0A1B0GVI3 it is inactive: -0.098.

Compound in the next assay: Cc1cc(Nc2cc(N3CCN(C)CC3)nc(Sc3ccc(NC(=O)C4CC4)cc3)n2)n[nH]1 [tozasertib]
Described as above. The essentials:
as §1
In the case of KIAA0754 (UniProt O94854), the log2 fold change was inactive: 0.006.
As to KLHDC10 (UniProt Q6PID8), the log2 fold change is inactive: 0.033.
In the case of KLHL20 (UniProt Q9Y2M5), the log2 fold change was inactive: 0.125.
Turning to KLHL42 (UniProt Q9P2K6), the log2 fold change is inactive: -0.236.
Take KAT6B (UniProt Q8WYB5): the log2 fold change is inactive: 0.01.
As to KIF4A (UniProt O95239), the log2 fold change was inactive: 0.188.

Compound in another assay: Cc1cc(SCc2sc(-c3ccc(C(F)(F)F)cc3)nc2C)ccc1OCC(=O)O
The description is as above. The essentials:
as §1
Take KIAA0754 (UniProt O94854): the log2 fold change is inactive: -0.133.
Still for that read-out and setting: the figure for KMT2E (UniProt Q8IZD2) is inactive: 0.072.
On to KLHL20 (UniProt Q9Y2M5), for which the log2 fold change is inactive: 0.173.
Still for that read-out and setting: next, KLHL42 (UniProt Q9P2K6): inactive: 0.05.
The same measure, in the same setting: next, KDM6A (UniProt O15550): inactive: 0.207.
On the same count and under the same terms, next, JOSD1 (UniProt Q15040): inactive: 0.042.
KCTD7 (UniProt Q96MP8): the log2 fold change was inactive: -0.055.
On the same count and under the same terms, next, KIF21B (UniProt O75037): inactive: -0.175; KIF16B isoform 2 (UniProt Q96L93): inactive: -0.1.
With KIF4A (UniProt O95239), the log2 fold change is inactive: 0.269.
On the same count and under the same terms, next, JMJD7 (UniProt P0C870): inactive: 0.743.

Compound in another assay: Cc1ccc(C(=O)N(CCCN)[C@@H](c2nc3cc(Cl)ccc3c(=O)n2Cc2ccccc2)C(C)C)cc1 [ispinesib]
The assay is described as above. In a few lines: as §1
For KIAA0754 (UniProt O94854), the log2 fold change was inactive: -0.284.
As to KLHL20 (UniProt Q9Y2M5), the log2 fold change was inactive: 0.039.
KIF21A (UniProt H0YI78): the log2 fold change was inactive: -0.041.
In the case of KIFC1 (UniProt Q9BW19), the log2 fold change was inactive: -0.046.
On to KDM6A (UniProt O15550), for which the log2 fold change was inactive: -0.146.
As to KIF20B isoform 2 (UniProt Q96Q89), the log2 fold change is inactive: -0.013.
As to KAT6B (UniProt Q8WYB5), the log2 fold change is inactive: -0.005.
With KIF21B (UniProt O75037), the log2 fold change was inactive: -0.32.
On to KIF16B isoform 2 (UniProt Q96L93), for which the log2 fold change was inactive: -0.053.
